# Measurements taken from the supplement of paper PMC5949888.
# Most values lie at the floor of the assay. Slopes are relative: functional sequences can read slightly below zero.
# Test system: Saccharomyces cerevisiae PS128 hsf1 delta, HSF1(1-493) fusion
# Assay: growth estimate (transactivation domain function in HSF1 fusion, heat-shock survival) (a.u. (slope of normalised read count over time)); higher = stronger growth at 37°C, i.e. more transactivation activity
# Settings: library: random library
# Description: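 Random 60-nt DNA library encoding peptides of up to 20 aa, fused to the C-terminus of yeast HSF1 residues 1-493 (C-terminal TAD deleted) and expressed from the native HSF1 promoter on a CEN plasmid in hsf1-deleted S. cerevisiae PS128. Cells were selected at 37°C on -trp 5-FOA plates for 0, 2, 4, 6 and 8 days and amplicons were sequenced. Growth estimate is the slope of a robust linear fit of total-sum-normalised read counts (normalised to the first time point) over time, using at least 2 replicates. Sequences are classed functional (TAD activity) above a threshold of -0.13, set from stop-codon control sequences.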
row,Substance,growth estimate
1,PCYPYNYATYMCPIGVTCSC,< -0.25
2,LLFRTTIQKLRISNIQVTCR,< -0.25
3,IPRTEKLRSNGSLPGPTDFE,< -0.25
4,PGRERSNLRML,< -0.25
5,LLRWSVVEYL,< -0.25
6,RAGVHVPNVLQRRSVSFYRV,< -0.25
7,RQIIQCGQGPEGQKLPTSSP,< -0.25
8,VTLGPIGWACPFVYKQGHIW,< -0.25
9,RKSGVR,< -0.25
10,ALRCFCPVFASNAGKSNSFR,< -0.25
11,NHTCS,< -0.25
12,MGAWAIGQAGGPQLCQEVRS,< -0.25
13,LWISDGARLSSMDRSLGHGS,< -0.25
14,GGKN,< -0.25
15,ERPEDTRTS,< -0.25
16,TKYK,< -0.25
17,GVRTKVDHTVF,< -0.25
18,HALSGEVSMLGSGELESLIP,< -0.25
19,RLVSDKGVHQMVSDRTNHKA,< -0.25
20,GLMACWENVAHWLPKTCAVP,< -0.25
21,FGLNHPISLRPKSS,< -0.25
22,RQGPRQSTGGLERLN,< -0.25
23,RLKASTGASANGKICTAL,< -0.25
24,LSTPLLAGQVLGQTGGKRIY,< -0.25
25,SSAYIGVCWEGR,< -0.25
26,APPHLPSRIVSRYLQA,< -0.25

row,Substance,growth estimate
1,VLGGSSVHLVEHDSTIDERR,< -0.25
2,LLYSTKYTARS,< -0.25
3,EEVADTTGFGCGPSDLFTRP,< -0.25
4,NEVSQHTDYYRTLNITLCGA,< -0.25
5,AHCEIQHSS,< -0.25
6,LYELHAVPSLILCLARY,< -0.25
7,YIAQSG,< -0.25
8,QQLTDRPRRRLP,< -0.25
9,PSIWLKPCIFWWPSGSGLTM,< -0.25
10,WSGWFSNRKPA,< -0.25
11,QCYGCLGMGHSWGAVRNGEA,< -0.25
12,RSPCGHAAPASLGSECDTGG,< -0.25
13,GLKAGSKQRSHTPVERGFLM,< -0.25
14,QVFLTLT,< -0.25
15,RSRYCRRILQCTWCYGFGEY,< -0.25
16,MVWS,< -0.25
17,TQRRESRGEAASSSHSLMAH,< -0.25
18,SNTHPVRERIWASVARWHFR,< -0.25
19,VGGSGGRLDSLCCGYRGHQK,< -0.25
20,RGIHFLIQSTGVAAWERGAT,-0.236
21,SRFGQVNIIR,< -0.25
22,MVVS,< -0.25
23,LTSISEDKKGIPRLASSSAQ,< -0.25
24,IRTL,-0.246
25,LGLLTATQCPDKQPLFNWRR,< -0.25
26,QSQRGQSNRVSKLEEVVASG,< -0.25

row,Substance,growth estimate
1,HRTTHPKKLRRPARSRTSPT,< -0.25
2,DGGCPIVSPAP,< -0.25
3,ANVFRAGLGSRRSGF,< -0.25
4,LSECNGSWSGK,< -0.25
5,TGWDGVGIGCLSAEPEWLKL,93.7
6,GLPYW,< -0.25
7,RTYSKHSPAKRAFRWIASPA,< -0.25
8,STLKRS,< -0.25
9,HRNACRGGNYSDCGRPGRLM,< -0.25
10,GDCQLFENDNGRGDKRTGGP,< -0.25
11,QSFSTIFELYACTLWKGSLR,< -0.25
12,RALEPTKPAGLSSDDVDS,< -0.25
13,CVSRRRLTAFERPAAPCKSL,< -0.25
14,YWMLQQAFLIRMVCISAVQV,< -0.25
15,EKAERV,< -0.25
16,IRT,< -0.25
17,FVAVSDTGHLPEL,< -0.25
18,HSDM,-0.246
19,SRDEG,< -0.25
20,GVESLYELARVGRVLTRPKC,< -0.25
21,TTVIGSTLPLRVINCLGAWG,< -0.25
22,SNDSGSRCFGSSFLHTTSRG,< -0.25
23,RKGGFTASLVHNRYIKNRKQ,< -0.25
24,ALYRSG,< -0.25
25,NSRVQPVSDLPKV,-0.246
26,WVRGLPMFLRWQATIHARSR,< -0.25

# Part of the list above in another layout:
row | Substance | growth estimate
23 | LTSISEDKKGIPRLASSSAQ | < -0.25
24 | IRTL | -0.246
25 | LGLLTATQCPDKQPLFNWRR | < -0.25
26 | QSQRGQSNRVSKLEEVVASG | < -0.25
1 | HRTTHPKKLRRPARSRTSPT | < -0.25
2 | DGGCPIVSPAP | < -0.25
3 | ANVFRAGLGSRRSGF | < -0.25
4 | LSECNGSWSGK | < -0.25
5 | TGWDGVGIGCLSAEPEWLKL | 93.7
6 | GLPYW | < -0.25
7 | RTYSKHSPAKRAFRWIASPA | < -0.25
8 | STLKRS | < -0.25
9 | HRNACRGGNYSDCGRPGRLM | < -0.25
10 | GDCQLFENDNGRGDKRTGGP | < -0.25
11 | QSFSTIFELYACTLWKGSLR | < -0.25
12 | RALEPTKPAGLSSDDVDS | < -0.25
13 | CVSRRRLTAFERPAAPCKSL | < -0.25
14 | YWMLQQAFLIRMVCISAVQV | < -0.25
15 | EKAERV | < -0.25
16 | IRT | < -0.25
17 | FVAVSDTGHLPEL | < -0.25
18 | HSDM | -0.246
19 | SRDEG | < -0.25
20 | GVESLYELARVGRVLTRPKC | < -0.25
21 | TTVIGSTLPLRVINCLGAWG | < -0.25
22 | SNDSGSRCFGSSFLHTTSRG | < -0.25
23 | RKGGFTASLVHNRYIKNRKQ | < -0.25
24 | ALYRSG | < -0.25
25 | NSRVQPVSDLPKV | -0.246
26 | WVRGLPMFLRWQATIHARSR | < -0.25

# Later entries:

row,Substance,growth estimate
1,VCAGIFATDNRVKPKPYRGA,< -0.25
2,MPGQLLRGRALSQPRKAGFY,< -0.25
3,LKELTGRWGDGAVFAEFVQH,< -0.25
4,AIFRL,< -0.25
5,VVRGGTLVARSTNVFMHLRR,< -0.25
6,RRCMPRRN,-0.246
7,TCARSIR,< -0.25
8,DSSACFTDGACRGP,< -0.25
9,EAS,< -0.25
10,KSGGETEQCFRAPPLGHLLR,< -0.25
11,TVGEECQNIV,< -0.25
12,RKFAYYTRRSRQHQFLGLMG,< -0.25
13,PMLSLSGVYCTS,< -0.25
14,GSRARSPAPSGYLAIRARTL,< -0.25
15,GVLMDGRWAPWRTPGY,< -0.25
16,ADRSVNRLRVRVRSSSQARV,-0.207
17,LVLELSLLFDIKVRELHDGL,< -0.25
18,VSSCAG,< -0.25
19,EDLTDCPPVLA,< -0.25
20,QTKRYVTLLGWSLAEA,< -0.25
21,SEP,< -0.25
22,SCV,< -0.25
23,FVK,< -0.25
24,AYRRWRVFGPVLCVLSVKLG,< -0.25
25,SFMCQVVPCDKYAASRRERT,< -0.25
26,PKQGVQSENSLDVRESHIAR,< -0.25

row,Substance,growth estimate
1,LTQERWFSDGRRISF,< -0.25
2,GCWNLNSMDFGLVSYQ,< -0.25
3,IVKVHH,< -0.25
4,HARRGTMW,< -0.25
5,WWQGVSDS,< -0.25
6,TQIT,< -0.25
7,HRVTKSRGYLSRV,< -0.25
8,IRLDLATAFTSGRRTLSATI,< -0.25
9,FRPGKFKVAVLCG,< -0.25
10,GYYCASAEGRRKYLKSN,< -0.25
11,LYGVKK,< -0.25
12,RGRGRFQLLSLFMFLVLCYA,< -0.25
13,PGETGSGCSSFRERGSWDSG,< -0.25
14,RRSDFVKVMVSRC,< -0.25
15,GEAWELIPLAYDGPPGES,< -0.25
16,TSRNCPARVHKRRKY,< -0.25
17,SEATFPQRIKCRTLFTAVRS,< -0.25
18,VTAGVGSQT,< -0.25
19,RWRNYYEGSTKHPVNFPDGI,< -0.25
20,RITGSILLYRDNALGKSTPR,< -0.25
21,YESSFSCLSNASIAAITPGY,-0.231
22,SSALLIQSKGI,< -0.25
23,SVVWI,< -0.25
24,LSYSSLTSEDFAQAYSVATT,-0.243
25,ERYDRPIVPRGLHTGNHCLA,< -0.25
26,LSVDLVRYQYYLRREIFLDS,< -0.25

row,Substance,growth estimate
1,RVYHRLEIGYDAPQNIHPWS,< -0.25
2,LCEDLQEGSRIWNAST,< -0.25
3,VFLLTFWGTPECGPSHRIQP,< -0.25
4,GLRSGTCGAAPCR,< -0.25
5,YNGLQRGFRRGPTLTTSSL,< -0.25
6,LIWNSN,< -0.25
7,NIIQIWV,-0.112
8,GQARVDSRISC,< -0.25
9,SDDRKDSRCEQLRFRVRVHL,< -0.25
10,KCTKF,< -0.25
11,PEIA,< -0.25
12,YRETPGNYNLPAQGHLTLRS,< -0.25
13,CGGRGARQ,< -0.25
14,KGPEGADRSCEQHVQTLVGI,< -0.25
15,LDSLKMAIQ,< -0.25
16,GTLISSL,< -0.25
17,FGPPKKCVNGPVAAQPVIVC,< -0.25
18,NKLQQKVNISSTPEVH,< -0.25
19,TTTGR,< -0.25
20,IRGQVGAST,< -0.25
21,PIGVASTCQA,< -0.25
22,NGGGPAPSLMQGRSTYLHQS,< -0.25
